No constants are given. Whether binding was seen depends on the method and setting. In cells and extracts the contact can be indirect. Binding can be weak; no strength is given.

Amino acid sequences for entries named in this document (tags omitted).
UniProt P11940: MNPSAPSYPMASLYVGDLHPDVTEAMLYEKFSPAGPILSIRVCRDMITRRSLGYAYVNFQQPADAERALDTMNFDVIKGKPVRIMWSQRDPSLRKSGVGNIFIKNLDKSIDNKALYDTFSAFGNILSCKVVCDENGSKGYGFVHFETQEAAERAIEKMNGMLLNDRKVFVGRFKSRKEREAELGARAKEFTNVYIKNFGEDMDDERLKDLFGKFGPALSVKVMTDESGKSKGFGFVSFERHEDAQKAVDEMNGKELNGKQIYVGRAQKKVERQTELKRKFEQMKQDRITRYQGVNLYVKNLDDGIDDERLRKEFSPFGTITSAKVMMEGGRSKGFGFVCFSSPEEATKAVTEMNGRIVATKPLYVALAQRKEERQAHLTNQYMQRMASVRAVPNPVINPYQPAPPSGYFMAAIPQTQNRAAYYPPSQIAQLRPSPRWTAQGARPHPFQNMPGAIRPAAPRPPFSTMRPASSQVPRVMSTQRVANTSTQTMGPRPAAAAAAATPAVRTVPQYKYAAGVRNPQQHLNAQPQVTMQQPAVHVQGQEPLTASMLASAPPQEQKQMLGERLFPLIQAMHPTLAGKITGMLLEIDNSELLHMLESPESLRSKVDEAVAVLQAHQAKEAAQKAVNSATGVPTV

One experiment has as its target FLAG-LARP4-ΔPAM2 (human) (UniProt Q71RC2). As to the kind of experiment: co-IP; anti-FLAG M2 magnetic beads, extract of HEK293 cells transfected with FLAG-tagged constructs; 4°C 2 hours; 50 mM Tris, 75 mM NaCl, 0.05% NP-40; blot with anti-RACK1 or anti-PABP1.
The target in experiment [1] is FLAG-LARP4-L22A/W22A (human) (UniProt Q71RC2). The description is as above.

With “cytoplasmic poly(A)-binding protein (PABPC1/PABP), endogenous in HEK293 cells (from UniProt P11940 1-636)”, the binding entry (with FLAG-LARP4-ΔPAM2 (human); in experiment [1]) was “binds” throughout.
